Binding data for one substance are collected here from patent US20190324032A1 (University of California, published 2019).

Amino acid sequences for entries named in this document (tags omitted). A change or cut given only in a name is not applied to a line headed by its entry.
UniProt Q9WTL8: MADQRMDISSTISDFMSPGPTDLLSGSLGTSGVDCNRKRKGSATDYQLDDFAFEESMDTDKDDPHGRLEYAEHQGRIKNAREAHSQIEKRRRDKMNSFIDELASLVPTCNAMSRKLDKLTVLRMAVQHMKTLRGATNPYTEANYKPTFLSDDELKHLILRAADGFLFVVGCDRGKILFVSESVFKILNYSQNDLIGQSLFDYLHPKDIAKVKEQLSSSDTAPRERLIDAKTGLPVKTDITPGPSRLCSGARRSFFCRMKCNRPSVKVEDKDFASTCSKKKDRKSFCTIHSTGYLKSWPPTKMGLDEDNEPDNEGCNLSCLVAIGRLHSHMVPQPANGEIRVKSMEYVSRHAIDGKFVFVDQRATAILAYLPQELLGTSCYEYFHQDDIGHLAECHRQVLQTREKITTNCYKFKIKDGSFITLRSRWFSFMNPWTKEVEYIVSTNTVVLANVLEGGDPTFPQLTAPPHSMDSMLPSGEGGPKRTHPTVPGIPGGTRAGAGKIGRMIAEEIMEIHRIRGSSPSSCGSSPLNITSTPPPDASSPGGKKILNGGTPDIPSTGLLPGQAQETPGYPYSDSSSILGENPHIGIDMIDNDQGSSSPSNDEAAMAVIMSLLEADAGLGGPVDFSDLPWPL

Positions count from the first letter of the chain named. No constants are given. Whether binding was seen depends on the method and setting. Binding seen in cells or lysates may run through a third protein. Some results given as binding are weak or reduced against the parent protein; the word gives no strength.

Assay [1] has as its target T1, mouse CLOCK PAS-AB W362A (mouse) (UniProt O08785).
T1 sequence: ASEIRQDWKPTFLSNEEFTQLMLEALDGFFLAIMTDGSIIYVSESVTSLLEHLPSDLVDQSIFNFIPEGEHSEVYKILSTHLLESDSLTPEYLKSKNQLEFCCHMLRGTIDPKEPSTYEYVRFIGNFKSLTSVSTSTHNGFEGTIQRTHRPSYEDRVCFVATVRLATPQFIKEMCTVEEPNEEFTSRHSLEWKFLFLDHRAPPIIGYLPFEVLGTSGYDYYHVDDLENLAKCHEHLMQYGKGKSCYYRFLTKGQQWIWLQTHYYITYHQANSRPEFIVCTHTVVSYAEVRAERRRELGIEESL
The assay can be described thus: GST pull-down.

Assay [2] addresses T2, mouse CLOCK PAS-AB (residues 93-395) (mouse) (UniProt O08785).
T2 sequence: T1 sequence with A270W
The assay can be described thus: GST pull-down.

For the substance “GST-BMAL1 PAS-AB (from UniProt Q9WTL8 136-441)”, the binding result in assay [1] and in assay [2] was “binds” each time.
